Primary screen of a compound library

Amino acid sequences for entries named in this document (tags omitted).
UniProt P9WFT3, whole entry: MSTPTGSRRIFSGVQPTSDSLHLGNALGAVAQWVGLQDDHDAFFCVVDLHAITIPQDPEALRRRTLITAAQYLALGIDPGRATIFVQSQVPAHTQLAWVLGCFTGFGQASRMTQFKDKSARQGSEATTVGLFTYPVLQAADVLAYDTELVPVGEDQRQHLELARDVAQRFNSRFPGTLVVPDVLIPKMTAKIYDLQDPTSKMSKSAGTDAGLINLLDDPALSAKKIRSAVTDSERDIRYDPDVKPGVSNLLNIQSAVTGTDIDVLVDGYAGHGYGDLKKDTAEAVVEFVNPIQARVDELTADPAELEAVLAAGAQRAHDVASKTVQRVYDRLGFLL
UniProt I6X8D2, whole entry: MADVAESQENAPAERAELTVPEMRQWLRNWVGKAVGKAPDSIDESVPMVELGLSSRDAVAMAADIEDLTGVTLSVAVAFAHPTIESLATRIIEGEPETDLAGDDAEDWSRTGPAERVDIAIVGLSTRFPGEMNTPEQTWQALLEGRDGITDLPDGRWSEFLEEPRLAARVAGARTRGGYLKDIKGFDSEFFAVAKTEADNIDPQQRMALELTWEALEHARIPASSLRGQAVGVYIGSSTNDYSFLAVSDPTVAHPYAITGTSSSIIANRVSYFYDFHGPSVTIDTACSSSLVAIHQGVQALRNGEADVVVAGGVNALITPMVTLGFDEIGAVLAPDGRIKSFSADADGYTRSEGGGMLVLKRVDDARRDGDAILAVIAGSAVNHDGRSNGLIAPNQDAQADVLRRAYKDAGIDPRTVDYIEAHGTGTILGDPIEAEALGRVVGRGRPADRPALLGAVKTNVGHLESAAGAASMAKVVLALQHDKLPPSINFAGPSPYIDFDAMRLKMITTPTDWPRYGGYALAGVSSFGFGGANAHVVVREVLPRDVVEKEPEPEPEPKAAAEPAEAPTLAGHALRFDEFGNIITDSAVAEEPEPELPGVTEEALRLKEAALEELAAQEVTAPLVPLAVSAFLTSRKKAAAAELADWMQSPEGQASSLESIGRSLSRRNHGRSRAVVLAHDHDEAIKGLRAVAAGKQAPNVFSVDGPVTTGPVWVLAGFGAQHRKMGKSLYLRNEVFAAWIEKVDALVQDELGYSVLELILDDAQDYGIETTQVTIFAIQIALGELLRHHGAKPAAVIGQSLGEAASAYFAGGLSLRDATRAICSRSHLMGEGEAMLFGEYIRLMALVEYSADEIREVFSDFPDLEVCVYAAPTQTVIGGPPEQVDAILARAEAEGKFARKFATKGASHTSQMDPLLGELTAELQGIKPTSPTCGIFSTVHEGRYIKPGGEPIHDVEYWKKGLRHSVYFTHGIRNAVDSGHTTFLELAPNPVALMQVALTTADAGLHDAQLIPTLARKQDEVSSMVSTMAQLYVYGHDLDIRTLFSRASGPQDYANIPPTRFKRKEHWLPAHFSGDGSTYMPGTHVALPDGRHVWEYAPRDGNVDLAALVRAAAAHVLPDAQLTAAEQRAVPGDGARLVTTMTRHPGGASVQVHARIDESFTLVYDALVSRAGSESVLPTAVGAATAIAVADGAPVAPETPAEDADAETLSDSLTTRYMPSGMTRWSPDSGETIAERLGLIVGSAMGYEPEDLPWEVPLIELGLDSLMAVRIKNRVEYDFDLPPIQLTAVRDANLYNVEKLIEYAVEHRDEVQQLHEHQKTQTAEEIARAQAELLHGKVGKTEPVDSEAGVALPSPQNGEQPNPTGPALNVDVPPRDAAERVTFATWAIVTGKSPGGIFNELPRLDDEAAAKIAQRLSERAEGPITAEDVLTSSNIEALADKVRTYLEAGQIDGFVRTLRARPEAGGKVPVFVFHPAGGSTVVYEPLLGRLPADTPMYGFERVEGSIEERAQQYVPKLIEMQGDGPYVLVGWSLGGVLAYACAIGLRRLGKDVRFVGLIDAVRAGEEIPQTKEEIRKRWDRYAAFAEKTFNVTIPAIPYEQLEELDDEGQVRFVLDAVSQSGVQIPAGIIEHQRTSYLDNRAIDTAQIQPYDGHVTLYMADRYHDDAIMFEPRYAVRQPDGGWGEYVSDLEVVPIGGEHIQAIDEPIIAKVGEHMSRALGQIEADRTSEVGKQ

From ChEMBL document CHEMBL3988442, “University of Dundee, Small-Polar-MMV Screening Library” (2021).

A: 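Enzyme assay of tryptophanyl-tRNA synthetase; the read-out is not stated. Target: Tryptophan-tRNA ligase, Mycobacterium tuberculosis (UniProt P9WFT3). Concentration: 10 µM. Direction is not recorded; retested compounds ran higher, which suggests that high means inhibition. About 65,000 compounds were tested under these conditions; 0.098% (about 64) showed 50% or more at least once.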
B: 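Enzyme assay of the thioesterase domain of polyketide synthase 13; the read-out is not stated. Target: Polyketide synthase Pks13, Mycobacterium tuberculosis (UniProt I6X8D2). Tested at 30 µM. The record gives no direction; the compounds picked for IC50 retests had high values, so higher reads as stronger inhibition. Size under these conditions: about 67,000 compounds, about 300 of them at 50% or above in at least one test.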

Each number is a percent effect as filed. The record does not define 0% and 100%; most values in the screen are far below 50% and negative numbers occur (in some assays of this library far below -100). The compounds are a random part of those screened.

* Cc1ccc(NC2CCN(C(=O)Cc3ccc(C#N)cc3)CC2)nn1 : A: 8.372%; B: -4.581%
* Nc1nc(CCCNC(=O)c2ccc(C3CCCNC3)cc2)cs1 (stereo not drawn) : A: -2.993%; B: -48.57%
* COc1ccc(C(=O)N(C2CC2)C2CC(=O)NC2=O)cc1 (stereo not drawn) : A: -4.595%; B: -0.4987%
* O=C1NCCN2CCN(C(=O)Nc3ccc(-c4ccccc4)cc3)CC12 (stereo not drawn) : A: 7.06%; B: -4.897%
* NC(=O)CCN1CCc2onc(-c3ccccc3F)c2C1 : A: 2.311%; B: 2.501%
* CN(C)C(=O)COCC1CN(Cc2ccco2)Cc2ncn(C)c21 (stereo not drawn) : B: 5.787%
* CS(=O)(=O)NC[C@H]1OC[C@@H]2CN(Cc3cccnc3)CC[C@@H]21 : B: 7.731%
* Cc1cc(CN(C)C(=O)c2ccc(Cl)c(N3CCCC3=O)c2)no1 : A: 16.59%; B: -26.2%
* Cc1n[nH]cc1CNCC(c1cccc(F)c1)N(C)C (stereo not drawn) : A: -0.8227%; B: -50.66%
* Cc1nc(C)c(C(=O)NCCn2nc3ccccn3c2=O)s1 : A: 5.322%; B: -10.71%
* O=C(c1cccc(-n2cccn2)c1)N1CCCOC(CN2CCCC2)C1 (stereo not drawn) : A: -7.728%; B: -36.6%
* COc1ccc(NC(=O)NCC(O)c2ccccc2F)c(OC)c1 (stereo not drawn) : A: 9.513%; B: -13.64%
* Cc1cccc(CN2Cc3[nH]nc(COCCO)c3C2)n1 : A: 0.07048%; B: -44.46%
* CNC(=O)[C@@H]1C[C@H](N)CN1Cc1cc2cc(C)cc(C)c2[nH]c1=O : A: 4.686%; B: -16.22%
* CN1CCC2(CC1)CN(CC1CC1)CC21CCNC1=O (stereo not drawn) : A: -3.638%; B: -21.09%
* Cc1noc(C(C)C)c1C(=O)NCCCN1CCC(C)CC1 : A: -7.252%; B: -11.42%
* O=C1CO[C@H]2CN(C3CCOCC3)C[C@H]2N1Cc1ccc(F)cc1 : A: -0.3794%; B: 18.59%
* c1cnnc(NCC2CN(CCn3cccn3)CCO2)c1 (stereo not drawn) : A: -1.419%; B: 2.232%
* COc1ccccc1CNc1c(N2CCN(C(C)=O)CC2)c(=O)c1=O : A: 0%; B: -12.18%
* CSCc1ccc(N(C)CC2CCCN(C(C)C)C2)nc1 (stereo not drawn) : A: -7.222%; B: -9.035%
* Cc1cnc(N2CC[C@@H]3CN(CCC(C)C)S(=O)(=O)[C@@H]3CC2)nc1 : A: 0.09295%; B: -29.95%
* COc1cc(COCC2CCN(Cc3cccnc3)CC2)cc(OC)c1 : A: 3.843%; B: -7.134%
* CCCc1noc(CN2CCN(CCO)CC2)n1 : A: 3.016%; B: -12.07%
* CC(O)CN1CCN(Cc2csc(-c3cnn(C)c3)n2)CC1 (stereo not drawn) : A: -5.838%; B: -15.64%
* CCN1CC(C(=O)N2CC(Oc3ccccc3F)C2)CC1=O (stereo not drawn) : A: 2.424%; B: -9.849%
* CNC(=O)c1ccc(CN(C(C)C)C(C)C)o1 : A: -2.714%; B: 6.4%
* O=C(NCCc1nnc[nH]1)Nc1cccc(SC(F)F)c1 : A: 8.609%; B: 12.69%
* CCN(Cc1ccco1)C(=O)NCc1nnc2n1CCCCC2 : A: 10.67%; B: 25.98%
* CCOc1ncccc1CNC(=O)NCCNC(=O)c1ccco1 : A: -4.589%; B: -9.691%
* CCOCC(=O)N1CCC(c2cc3ncccc3c(O)n2)CC1 : A: -1.255%; B: 17.29%
* O=C(c1ccc(-n2cnnc2)cc1)N1CCCC(n2ccnc2)C1 (stereo not drawn) : A: -0.0684%; B: -23.26%
* Cc1cc(O)cc2c(=O)oc(CC(C)O)cc12 (stereo not drawn) : A: -4.195%; B: -11.82%
* CC(c1cccc(-c2ccc(C(=O)O)cc2Cl)c1)N(C)C (stereo not drawn) : A: 0.6552%; B: 1.41%
* Cc1cc(C(=O)N2C[C@@H](CN3CCOCC3)C[C@H](CO)C2)nc(C)n1 : A: -0.4295%; B: -0.1398%
* COc1ccc(-c2ccnc(N)c2)c(C)c1 : A: 2.692%; B: -8.929%
* Cc1ccc(N2CCc3ncc(CNc4ccccn4)n3CC2)nn1 : A: -3.358%; B: -10.86%

Repeated from the top, 3 entries:

compound	A	B
Cc1ccc(NC2CCN(C(=O)Cc3ccc(C#N)cc3)CC2)nn1	8.372%	-4.581%
Nc1nc(CCCNC(=O)c2ccc(C3CCCNC3)cc2)cs1 (stereo not drawn)	-2.993%	-48.57%
COc1ccc(C(=O)N(C2CC2)C2CC(=O)NC2=O)cc1 (stereo not drawn)	-4.595%	-0.4987%